These are yes or no findings as the source states them, for the method shown.
Biological target: NicA2 residues 21 to 482 [NicA2(21–482)] (Pseudomonas putida S16 (DSM 28022)) (UniProt F8G0P2)
Experiment: SEC; Superdex 200 gel filtration; buffer 25 mM Tris-HCl (pH 8.0), 150 mM NaCl, 5 mM DTT; elution compared with molecular weight markers; both purified

B1: NicA2 residues 21 to 482 [NicA2(21–482)] (enzyme, UniProt F8G0P2 21-482)
chain: AVVTAGVAGLGAIDAASATQKTNRASTVKGGFDYDVVVVGGGFAGATAARECGLQGYRTLLLEARSRLGGRTFTSRFAGQEIEFGGAWVHWLQPHVWAEMQRYGLGVVEDPLTNLDKTLIMYNDGSVESISPDEFGKNIRIAFEKLCHDAWEVFPRPHEPMFTERARELDKSSVLDRIKTLGLSRLQQAQINSYMALYAGETTDKFGLPGVLKLFACGGWNYDAFMDTETHYRIQGGTIGLINAMLTDSGAEVRMSVPVTAVEQVNGGVKIKTDDDEIITAGVVVMTVPLNTYKHIGFTPALSKGKQRFIKEGQLSKGAKLYVHVKQNLGRVFAFADEQQPLNWVQTHDYSDELGTILSITIARKETIDVNDRDAVTREVQKMFPGVEVLGTAAYDWTADPFSLGAWAAYGVGQLSRLKDLQAAEGRILFAGAETSNGWHANIDGAVESGLRAGREVKQLLS
B1 was tested, and the binding was “no binding”.
